Data reported in patent publication US20080166293A1.
Results are given in words; binding and its absence hold for the method and conditions named. Some results given as binding are weak or reduced against the parent protein; the word gives no strength.

Molecular target: human transferrin receptor (hTfR) (human) (UniProt P02786)
Assay: phage binding to CEF+hTfR versus CEF cells at 4 C, titer of eluted phage

In the case of HAIYPRH (peptide, not shown: large carriers) [HAIYPRH (Seq. ID No. 1) phage], the binding is reported as “binds”.

In the case of THRPPMWSPVWP (peptide, not shown: large carriers) [… (Seq. ID No. 2) phage], the binding is reported as “binds”.
